Source: paper PMC10252828
Results are given in words; binding and its absence hold for the method and conditions named. Binding seen in cells or lysates may run through a third protein. Some entries that bind do so weakly or less than the wild type. Where a sequence is shown, tags or fusion partners need not be part of it.

Molecular target: T1, PSMA4-GFP (20S proteasomal subunit PSMA4 with GFP fused C-terminally) (D. discoideum) (UniProt P34119)
T1 sequence: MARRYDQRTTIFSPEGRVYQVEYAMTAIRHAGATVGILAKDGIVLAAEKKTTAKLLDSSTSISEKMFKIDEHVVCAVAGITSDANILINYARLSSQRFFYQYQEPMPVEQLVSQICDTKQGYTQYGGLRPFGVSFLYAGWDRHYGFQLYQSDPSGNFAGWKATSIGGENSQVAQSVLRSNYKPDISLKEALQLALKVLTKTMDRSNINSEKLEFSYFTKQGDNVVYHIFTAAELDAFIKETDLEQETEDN
Assay: co-IP; GFP-trap beads, 2 h at 4 °C, with the soluble supernatant of lysates (20 mM Tris/HCl pH 7.5, 100 mM NaCl, 1 mM DTT, 20 mM MgCl2, 5% glycerol) of AX2 and ATG16- cells expressing RFP-PSMD1 and PSMA4-GFP; cells without PSMA4-GFP as negative controls; bound proteins by SDS-PAGE with silver staining or Western blot (anti-GFP, anti-PSMA4)

- binding: binds
B1: endogenous PSMA4 (protein, UniProt P34119 1-250)
chain: T1 sequence
